Measurements: patent publication US20240207457A1, “CANCER-SPECIFIC POLYPEPTIDE AND USE THEREOF” (THE CATHOLIC UNIVERSITY OF KOREA INDUSTRY-ACADEMIC …, priority 2021, published 2024)
Results are given in words; binding and its absence hold for the method and conditions named. Some results given as binding are weak or reduced against the parent protein; the word gives no strength.

Molecular target: T1, LGR5 protein on gastric cancer cell lines (AGS, MKN45, MKN28) (UniProt O75473)
T1 sequence (looked up): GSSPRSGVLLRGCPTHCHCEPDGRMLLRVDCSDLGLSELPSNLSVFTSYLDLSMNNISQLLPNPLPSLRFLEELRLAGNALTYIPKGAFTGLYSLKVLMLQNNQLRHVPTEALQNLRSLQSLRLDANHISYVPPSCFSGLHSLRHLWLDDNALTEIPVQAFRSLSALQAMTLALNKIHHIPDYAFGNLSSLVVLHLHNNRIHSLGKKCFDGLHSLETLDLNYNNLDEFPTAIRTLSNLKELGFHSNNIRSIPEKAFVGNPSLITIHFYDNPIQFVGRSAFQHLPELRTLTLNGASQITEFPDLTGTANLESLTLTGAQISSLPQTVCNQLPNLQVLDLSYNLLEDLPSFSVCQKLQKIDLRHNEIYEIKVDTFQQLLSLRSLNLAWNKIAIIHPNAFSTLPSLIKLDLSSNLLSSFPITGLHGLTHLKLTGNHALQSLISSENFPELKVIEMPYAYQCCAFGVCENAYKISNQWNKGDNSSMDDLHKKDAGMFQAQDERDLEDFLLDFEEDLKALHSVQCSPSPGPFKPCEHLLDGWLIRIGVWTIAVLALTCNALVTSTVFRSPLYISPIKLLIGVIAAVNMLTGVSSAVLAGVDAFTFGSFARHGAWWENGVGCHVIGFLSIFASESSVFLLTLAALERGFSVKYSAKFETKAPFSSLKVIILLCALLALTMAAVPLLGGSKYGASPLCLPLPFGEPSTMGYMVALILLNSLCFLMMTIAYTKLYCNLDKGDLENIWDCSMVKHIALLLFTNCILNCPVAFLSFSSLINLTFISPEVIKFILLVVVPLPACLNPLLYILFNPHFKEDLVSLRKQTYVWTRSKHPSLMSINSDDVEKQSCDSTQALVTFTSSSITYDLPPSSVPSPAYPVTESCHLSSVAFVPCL
Assay: FITC staining of AGS, MKN45 and MKN28 cells versus CCD841 cells

B1: phage No. 24 bound to FITC (peptide, not shown: large carriers)
peptide: STCTRSR
modifications: FITC bound to the phage (site not stated)
binding: binds
